Assay results from article PMC4428273.
Results are given in words; binding and its absence hold for the method and conditions named. In cells and extracts the contact can be indirect. Some binding calls cover weakened binding; strength is not graded here.

Protein sequences, listed by entry. Tags and fused reporters are not part of them. Lines headed by an entry give the natural chain unless they say otherwise; changes in a name come on top. Chains listed by the source or under a name are the forms on record and can include a tag or linker. Residues count along the entry.
wild-type canine KIT (O97799, residues 28-979): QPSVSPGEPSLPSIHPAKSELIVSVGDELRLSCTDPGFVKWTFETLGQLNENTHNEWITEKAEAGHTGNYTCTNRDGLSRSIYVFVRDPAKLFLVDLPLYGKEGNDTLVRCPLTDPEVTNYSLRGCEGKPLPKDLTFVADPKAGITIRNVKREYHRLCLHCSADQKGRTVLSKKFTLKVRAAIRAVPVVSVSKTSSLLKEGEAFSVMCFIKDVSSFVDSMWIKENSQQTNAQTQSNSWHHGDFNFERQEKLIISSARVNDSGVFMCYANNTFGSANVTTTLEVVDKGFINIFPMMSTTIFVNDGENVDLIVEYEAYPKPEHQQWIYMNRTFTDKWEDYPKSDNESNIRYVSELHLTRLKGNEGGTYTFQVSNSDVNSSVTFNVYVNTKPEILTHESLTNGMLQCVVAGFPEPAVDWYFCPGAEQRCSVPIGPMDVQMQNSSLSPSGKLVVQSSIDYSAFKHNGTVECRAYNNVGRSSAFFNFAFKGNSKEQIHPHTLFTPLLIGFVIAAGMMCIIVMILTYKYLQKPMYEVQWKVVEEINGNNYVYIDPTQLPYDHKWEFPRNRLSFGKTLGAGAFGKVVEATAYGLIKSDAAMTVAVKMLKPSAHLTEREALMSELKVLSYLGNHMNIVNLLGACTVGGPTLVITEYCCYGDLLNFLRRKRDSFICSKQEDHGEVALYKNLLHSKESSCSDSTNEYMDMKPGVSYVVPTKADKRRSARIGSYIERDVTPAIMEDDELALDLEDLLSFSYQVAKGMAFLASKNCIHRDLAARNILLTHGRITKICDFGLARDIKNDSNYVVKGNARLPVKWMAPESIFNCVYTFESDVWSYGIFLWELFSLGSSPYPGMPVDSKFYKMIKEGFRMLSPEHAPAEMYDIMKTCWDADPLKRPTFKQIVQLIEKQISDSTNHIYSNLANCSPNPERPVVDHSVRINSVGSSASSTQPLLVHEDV
N508I mutant canine KIT (O97799, form named): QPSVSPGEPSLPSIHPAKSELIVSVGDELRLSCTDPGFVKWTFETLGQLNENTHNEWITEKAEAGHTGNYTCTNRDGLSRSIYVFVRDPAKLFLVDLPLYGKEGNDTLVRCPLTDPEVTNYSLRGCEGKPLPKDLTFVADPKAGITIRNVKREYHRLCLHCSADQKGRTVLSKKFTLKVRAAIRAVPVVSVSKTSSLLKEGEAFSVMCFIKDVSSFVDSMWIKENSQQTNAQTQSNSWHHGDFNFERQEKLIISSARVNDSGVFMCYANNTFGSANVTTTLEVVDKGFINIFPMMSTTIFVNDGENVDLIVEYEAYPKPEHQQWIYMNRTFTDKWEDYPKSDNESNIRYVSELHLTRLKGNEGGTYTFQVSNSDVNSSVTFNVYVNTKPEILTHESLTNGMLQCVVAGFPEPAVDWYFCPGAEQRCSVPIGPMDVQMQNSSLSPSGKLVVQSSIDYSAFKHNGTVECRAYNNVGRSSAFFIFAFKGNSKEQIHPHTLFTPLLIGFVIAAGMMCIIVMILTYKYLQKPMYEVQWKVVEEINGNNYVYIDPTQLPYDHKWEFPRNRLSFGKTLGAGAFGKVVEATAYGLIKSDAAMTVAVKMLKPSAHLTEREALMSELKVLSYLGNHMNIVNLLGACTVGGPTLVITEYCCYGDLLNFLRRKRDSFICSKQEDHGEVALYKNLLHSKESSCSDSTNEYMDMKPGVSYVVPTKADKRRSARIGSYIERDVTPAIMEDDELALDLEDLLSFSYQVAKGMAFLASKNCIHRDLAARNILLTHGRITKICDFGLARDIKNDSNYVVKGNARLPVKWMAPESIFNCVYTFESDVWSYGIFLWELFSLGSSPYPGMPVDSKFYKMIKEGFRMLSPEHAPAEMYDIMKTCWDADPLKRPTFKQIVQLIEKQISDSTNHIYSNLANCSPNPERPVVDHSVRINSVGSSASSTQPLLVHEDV

Legend:
[1] = molecular target: N508I mutant canine KIT (canine) (UniProt O97799); assay: cross-linking; intact IC-2 subline cells in PBS with 1 mg/mL BSA, 90 min at 4°C with recombinant canine SCF (10 ng/mL; a dose series for IC-2^WT), washed, then 1 mM BS3 for 30 min at 22°C in PBS; lysates blotted for KIT
[2] = molecular target: N508I mutant canine KIT (canine) (UniProt O97799); assay: cross-linking; intact IC-2 subline cells without SCF, 1 mM BS3 for 30 min at 22°C in PBS; lysates blotted for KIT; in some experiments IC-2^N508I cells were treated for 4 h with STI571 or AMN107 before BS3
[3] = molecular target: wild-type canine KIT (canine) (UniProt O97799); assay: cross-linking; intact IC-2 subline cells in PBS with 1 mg/mL BSA, 90 min at 4°C with recombinant canine SCF (10 ng/mL; a dose series for IC-2^WT), washed, then 1 mM BS3 for 30 min at 22°C in PBS; lysates blotted for KIT
[4] = molecular target: wild-type canine KIT (canine) (UniProt O97799); assay: cross-linking; intact IC-2 subline cells without SCF, 1 mM BS3 for 30 min at 22°C in PBS; lysates blotted for KIT; in some experiments IC-2^N508I cells were treated for 4 h with STI571 or AMN107 before BS3

For “N508I mutant canine KIT (from UniProt O97799 28-979) (receptor)”, the binding [1] was “binds” and the binding [2] was “binds”.

For “wild-type canine KIT (from UniProt O97799 28-979) (receptor)”, the binding [3] was “binds” and the binding [4] was “binds weakly”.
